Test results from publication PMC4434885.
These are yes or no findings as the source states them, for the method shown. Binding calls can cover weak binding; strength is not graded here.

By UniProt entry, the sequences of proteins in these tests, tags left out.
UniProt O15131: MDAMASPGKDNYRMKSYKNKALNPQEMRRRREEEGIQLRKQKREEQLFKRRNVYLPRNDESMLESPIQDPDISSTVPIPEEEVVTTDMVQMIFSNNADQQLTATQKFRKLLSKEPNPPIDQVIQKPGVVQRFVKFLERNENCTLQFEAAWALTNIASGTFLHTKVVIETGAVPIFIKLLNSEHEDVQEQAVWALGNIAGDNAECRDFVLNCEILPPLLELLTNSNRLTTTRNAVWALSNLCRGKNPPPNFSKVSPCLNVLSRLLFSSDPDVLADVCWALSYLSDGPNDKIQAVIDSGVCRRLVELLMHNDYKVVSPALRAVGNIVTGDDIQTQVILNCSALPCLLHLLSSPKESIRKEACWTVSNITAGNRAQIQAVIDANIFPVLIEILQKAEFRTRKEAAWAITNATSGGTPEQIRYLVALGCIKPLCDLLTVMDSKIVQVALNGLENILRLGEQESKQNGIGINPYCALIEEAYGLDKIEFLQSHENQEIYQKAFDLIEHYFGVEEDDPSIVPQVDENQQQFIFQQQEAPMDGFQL

What was measured:
[1] = molecular target: LexA-MSP58 NLS1 mutant (10A) (UniProt Q96EZ8); experiment: two-hybrid; directed test in S. cerevisiae L40: LexA-MSP58 constructs (pBTM116) as bait, Gal4 AD-importins (pACT2) as prey; growth without histidine, X-Gal colony assay and quantitative liquid β-galactosidase assay
[2] = molecular target: LexA-MSP58 NLS2 mutant (5A) (UniProt Q96EZ8); experiment: as above

Q: “Gal4 AD-importin α6 (entire) (from UniProt O15131 1-539)” was tested. Which binding [1] did it give?
A: The binding was “binds”.

Q: What about the binding [2] of the same substance?
A: Its binding is “binds”.
